No constants are given. Whether binding was seen depends on the method and setting. Binding seen in cells or lysates may run through a third protein. Some entries that bind do so weakly or less than the wild type.
Target: TEAD1-Flag (UniProt P28347)
Assay: co-IP; TEAD1-Flag or TEAD1-NCOA2-Flag expressed in HEK293T cells, immunoprecipitated with an anti-Flag antibody; endogenous YAP/TAZ detected by anti-YAP/TAZ antibodies

Sequences of proteins named here, by UniProt entry; tags and fusion partners are left off.
UniProt P28347: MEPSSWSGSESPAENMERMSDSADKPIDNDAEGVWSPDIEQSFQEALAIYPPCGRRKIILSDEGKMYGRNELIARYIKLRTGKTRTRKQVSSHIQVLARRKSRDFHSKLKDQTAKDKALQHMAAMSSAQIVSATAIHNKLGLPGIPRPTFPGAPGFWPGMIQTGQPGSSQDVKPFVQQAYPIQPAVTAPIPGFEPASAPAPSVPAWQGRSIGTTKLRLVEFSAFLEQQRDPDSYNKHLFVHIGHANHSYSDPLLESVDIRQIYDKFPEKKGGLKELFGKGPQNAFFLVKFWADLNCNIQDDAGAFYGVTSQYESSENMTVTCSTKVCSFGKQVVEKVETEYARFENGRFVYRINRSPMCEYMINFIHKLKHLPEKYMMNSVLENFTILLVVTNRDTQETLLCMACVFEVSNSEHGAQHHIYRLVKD
UniProt Q9GZV5: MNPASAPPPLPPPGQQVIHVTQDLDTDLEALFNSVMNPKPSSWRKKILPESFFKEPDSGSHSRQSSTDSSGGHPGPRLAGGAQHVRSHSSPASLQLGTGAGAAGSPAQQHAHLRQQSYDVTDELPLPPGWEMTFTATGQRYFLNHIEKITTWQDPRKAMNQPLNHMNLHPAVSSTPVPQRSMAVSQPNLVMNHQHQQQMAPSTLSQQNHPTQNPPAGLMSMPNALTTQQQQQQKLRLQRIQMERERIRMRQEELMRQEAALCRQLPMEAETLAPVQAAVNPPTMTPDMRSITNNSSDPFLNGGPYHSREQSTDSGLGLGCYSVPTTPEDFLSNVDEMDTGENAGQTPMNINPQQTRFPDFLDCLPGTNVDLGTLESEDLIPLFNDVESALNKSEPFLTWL

binding: binds
Substance: endogenous TAZ (from UniProt Q9GZV5 1-400)

Reference: paper PMC12061476
